# Values from PubChem BioAssay AID504804 (Drosophila RNAi Screening Center, 2011)
# Screen: 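Fly genes whose loss lessens doxorubicin-driven cell death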 (primary screen)
# System: Drosophila Kc cells
# Knock-down reagent: long dsRNA against Drosophila genes, 0.5 µg dsRNA per well
# Time to read-out: 96 h (48 h knock-down, then 48 h drug)
# Conditions: doxorubicin 5 µg/ml for 48 h, added 48 h after dsRNA
# Read-out: 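Viability measured as cellular ATP by luminescence after 48 h knock-down then 48 h doxorubicin at 5 µg/ml; unnormalised plate counts for each replicate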
# Direction: raw ATP luminescence: higher = more viable cells, protection from doxorubicin
# Rule for the call: 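Active when both duplicate wells lie at least 2 SD above the plate mean and protection is confirmed by rescreening and independent dsRNAs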
# The deposit covers about 19,000 reagents; below is a random part of those with a known target gene and a result. In the full data, 47 (0.25%) are marked active. 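Signals are raw, not normalised; exact z-scores behind calls not deposited; actives needed confirmation, so some wells reaching 2 SD are inactive.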
predicted target,amplicon,"raw ATP luminescence, replicate 1","raw ATP luminescence, replicate 2",call
COX7AL,DRSC15313,73060,63143,inactive
CG34243 (retired record),DRSC09291,66440,1.03e5,inactive
CG34243 (retired record),DRSC09292,78473,1.18e5,inactive
CG7049,DRSC08587,51463,61173,inactive
CG12540,DRSC19471,3.25e5,3.18e5,inactive
CG32801,DRSC17964,65360,58490,inactive
CG6833,DRSC10721,16973,21740,inactive
CG15597,DRSC12283,71443,44757,inactive
CG8916,DRSC20120,2.99e5,3.15e5,inactive
FASN1,DRSC00268,1.08e5,67293,inactive
CG44836,DRSC09915,85973,64187,inactive
daw,DRSC00479,1.08e5,89813,inactive
EndoG,DRSC07292,71043,64677,inactive
Sdr,DRSC15517,62497,30677,inactive
HP1c,DRSC16166,56963,61887,inactive
Khc-73,DRSC07449,56597,71270,inactive
aPKC,DRSC05515,64743,95070,inactive
put,DRSC17039,86590,29203,inactive
dj-1beta,DRSC14599,68080,48240,inactive
CG33648,DRSC01387,3.43e5,2.64e5,inactive
IleRS,DRSC11667,27913,26627,inactive
Poxm,DRSC16793,56807,48543,inactive
CG17571,DRSC01768,69017,66443,inactive
CG17571,DRSC03755,59453,70020,inactive
CG33552,DRSC01551,2.78e5,2.37e5,inactive
Obp28a,DRSC03394,42383,27973,inactive
mRpS9,DRSC12645,76813,66503,inactive
mRpS9,DRSC15456,71063,58757,inactive
kmg,DRSC02829,72600,89750,inactive
Su(var)3-3,DRSC10250,39840,22393,inactive
zen2,DRSC12633,76210,79323,inactive
CG5757,DRSC06951,56927,42603,inactive
dpr5,DRSC15766,61970,59060,inactive
Rab5,DRSC00777,1.11e5,69083,inactive
Grd,DRSC11178,75130,57350,inactive
CG34417,DRSC17467,1.84e5,1.90e5,inactive
CG34417,DRSC18332,29690,39430,inactive
CG14710,DRSC14933,59283,28763,inactive
nes,DRSC11375,60280,62480,inactive
CG13250,DRSC11698,72677,62653,inactive
Mpp6,DRSC03169,54340,45873,inactive
eIF3a,DRSC12339,66053,51403,inactive
mRpL38,DRSC19734,4.08e5,3.56e5,inactive
Cow,DRSC13601,1.48e5,1.57e5,inactive
Cow,DRSC14680,70490,58860,inactive
hpRNA:CR32205,DRSC09890,63440,57283,inactive
CG10565,DRSC11620,23730,21140,inactive
CG14120,DRSC10124,83373,87813,inactive
Cdc45,DRSC18164,59830,25180,inactive
CG13955,DRSC06443,49123,76933,inactive
Mondo,DRSC02667,58570,51467,inactive
Mondo,DRSC02668,47890,42563,inactive
CG17321,DRSC02598,54340,47360,inactive
CG7906,DRSC10928,24663,23533,inactive
fan,DRSC10930,65617,80363,inactive
Dcr-1,DRSC15646,56947,55620,inactive
SdhD,DRSC14215,51510,48860,inactive

Laid out differently: 7 of the entries above
aPKC [DRSC05515]
- raw ATP luminescence, replicate 1: 64743
- raw ATP luminescence, replicate 2: 95070
- call: inactive

put [DRSC17039]
- raw ATP luminescence, replicate 1: 86590
- raw ATP luminescence, replicate 2: 29203
- call: inactive

dj-1beta [DRSC14599]
- raw ATP luminescence, replicate 1: 68080
- raw ATP luminescence, replicate 2: 48240
- call: inactive

CG33648 [DRSC01387]
- raw ATP luminescence, replicate 1: 3.43e5
- raw ATP luminescence, replicate 2: 2.64e5
- call: inactive

IleRS [DRSC11667]
- raw ATP luminescence, replicate 1: 27913
- raw ATP luminescence, replicate 2: 26627
- call: inactive

Poxm [DRSC16793]
- raw ATP luminescence, replicate 1: 56807
- raw ATP luminescence, replicate 2: 48543
- call: inactive

CG17571 [DRSC01768]
- raw ATP luminescence, replicate 1: 69017
- raw ATP luminescence, replicate 2: 66443
- call: inactive
